Laboratory results: PubChem BioAssay AID652054 (National Center for Advancing Translational Sciences (NCATS), 2013)
Screen size: about 360,000 compounds; about 9,100 (2.5%) were called active. This list was built around the results that the source calls inconclusive (neither active nor inactive); the mix of calls is not that of the screen. No stated cut-off is given here; in the data, active means max response below about -50%; inconclusive means no clear call, values can overlap the other calls; inactive means above that.
On the % scale 0 is the no-effect control and ±100 the full control effect.

Amino acid sequences for entries named in this document (tags omitted).
UniProt P35462, whole entry, looked up: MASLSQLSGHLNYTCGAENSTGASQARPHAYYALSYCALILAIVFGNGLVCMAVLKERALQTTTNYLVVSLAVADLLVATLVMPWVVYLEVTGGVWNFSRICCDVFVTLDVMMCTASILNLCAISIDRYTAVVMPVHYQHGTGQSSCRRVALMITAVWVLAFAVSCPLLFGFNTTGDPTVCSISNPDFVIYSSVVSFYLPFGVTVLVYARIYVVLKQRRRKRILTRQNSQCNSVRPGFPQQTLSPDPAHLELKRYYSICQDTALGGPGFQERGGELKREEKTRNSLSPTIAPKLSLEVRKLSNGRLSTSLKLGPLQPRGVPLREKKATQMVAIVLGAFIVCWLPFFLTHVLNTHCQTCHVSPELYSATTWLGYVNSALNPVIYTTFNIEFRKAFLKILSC

Each molecule was assayed against D(3) dopamine receptor (Homo sapiens) (UniProt P35462) (assay: qHTS of D3 Dopamine Receptor Antagonist: qHTS). Settings: D3R cells, DiscoveRx beta-arrestin luminescence, antagonist mode; hits give low values.
In short: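 Cells expressing the human receptor were seeded at 1500 cells/well, incubated overnight at 37 degrees C in 5% CO2, then exposed to library compounds with dopamine controls for 90 minutes at 37 degrees C before luminescent detection.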
In the case of `CC(=O)N1C(=O)C2(C(C#N)=C(N)Oc3c2c(C)nn3-c2ccccc2)c2ccccc21` (stereo not drawn), the max response, negative = inhibition is reported as inconclusive: -49.3%.
`COc1cccc(C(C(=O)NC2CCCC2)N(Cc2ccco2)C(=O)c2ccco2)c1OC` (stereo not drawn) was tested, and the max response, negative = inhibition was active: -65.1%.
For `S=c1[nH]nc(-c2cccc(Cl)c2)n1Cc1ccccc1`, the max response, negative = inhibition was inactive: 10.3%.
For `CCN(CC)CCn1c(/N=C/c2cc(Br)ccc2O)nc2ccccc21`, the max response, negative = inhibition was inconclusive: -40.8%.
In the case of `O=C(NC1CC2CCC1C2)c1ccc(CN2CCOCC2)cc1` (stereo not drawn), the max response, negative = inhibition is reported as inconclusive: -31.4%.
`O=C(CSc1nc2ccsc2c(=O)n1NC(=O)c1ccccc1)NCc1ccco1` was tested, and the max response, negative = inhibition was inactive: 24%.
For `Cc1cc(C(C)(C)C)cc(CN2CCN(S(=O)(=O)c3cccs3)CC2)c1O`, the max response, negative = inhibition was inactive: -21.5%.
`CCOC(=O)N1CCN(c2nc(-c3cccs3)nc3ccccc23)CC1` was tested, and the max response, negative = inhibition was inactive: 67.1%.
`COc1cccc(-c2csc(NC(=O)Nc3ccccc3)n2)c1` was tested, and the max response, negative = inhibition was inactive: 19.4%.
`Cc1cc(=S)cc(C)n1CCCO` was tested, and the max response, negative = inhibition was inconclusive: -37%.
`COC(=O)c1c(-c2ccc(SC)cc2)sc2ccccc12` was tested, and the max response, negative = inhibition was inactive: 41.8%.
With `COC(=O)c1ccc(NS(=O)(=O)c2cc(-c3cc(C)no3)ccc2OC)cc1` the max response, negative = inhibition was active: -51.5%.
For `COc1ccc(Br)cc1CN1CCCC(C(=O)N2CCCCC2)C1` (stereo not drawn), the max response, negative = inhibition was active: -89.1%.
With `COc1cc(/C=N/n2c(-c3ccccc3)n[nH]c2=S)cc(OC)c1OC` the max response, negative = inhibition was inconclusive: -30.4%.
`COc1ccccc1N1CCN(CCNC(=O)Nc2cccc(C)c2C)CC1` was tested, and the max response, negative = inhibition was inconclusive: -32.8%.
`COC(=O)CCN(C)CCC(=O)OC` was tested, and the max response, negative = inhibition was inconclusive: -33.8%.
For `COc1ccc(Cl)cc1-n1c(=S)sc2c(=O)[nH]c(SCC(=O)NCC3CCCO3)nc21` (stereo not drawn), the max response, negative = inhibition was active: -58.3%.
`CC(C)(C)NC[C@H](O)COc1cccc2c1CCCC2=O` was tested, and the max response, negative = inhibition was inconclusive: -40.8%.
With `COC(=O)CCCC(=O)N(C)CC1CCCN(CCc2ccccc2C)C1` (stereo not drawn) the max response, negative = inhibition was inconclusive: -45.1%.
`Fc1ccc(Sc2nc(-c3ccccc3)nnc2C(F)(F)F)cc1` was tested, and the max response, negative = inhibition was active: -88.2%.
For `CCOC(=O)c1cncc(NC(=O)c2ccccc2)c1`, the max response, negative = inhibition was inconclusive: -40.8%.
`CN(C)c1ccc(N=Nc2nc3ccccc3n2C)cc1` was tested, and the max response, negative = inhibition was active: -74.5%.
In the case of `CCc1ccc(S(=O)(=O)Nc2cccc(-c3ccc4nnc(C)n4n3)c2)s1`, the max response, negative = inhibition is reported as inactive: 13.4%.
With `Clc1ccc(-c2noc(CN3CCCC3)n2)cc1` the max response, negative = inhibition was inactive: 1.14%.
For `COc1ccc2nc(N/C(N)=N/C(=S)Nc3cccc(C)c3)nc(C)c2c1`, the max response, negative = inhibition was inconclusive: -39.1%.
In the case of `Cc1cccc(/N=C/c2c(O)c3ccccc3oc2=O)n1`, the max response, negative = inhibition is reported as inconclusive: -37.3%.
In the case of `CCOCCCN(C)C1CCN(C(=O)c2oc3ccccc3c2NC(=O)c2cccc([N+](=O)[O-])c2)CC1`, the max response, negative = inhibition is reported as inconclusive: -37.2%.
For `O=C(COC(=O)Cc1ccccc1F)Nc1ccc(SC(F)F)cc1`, the max response, negative = inhibition was inconclusive: -43.6%.
With `CN(CCNC(=O)c1cccc(N2CCCC2=O)c1)Cc1ccccc1` the max response, negative = inhibition was active: -58.4%.
In the case of `COc1ccc(Cl)cc1NC(=O)Nc1cccc([N+](=O)[O-])c1C`, the max response, negative = inhibition is reported as active: -76.1%.
For `COc1ccc(-c2ccc(SCC(=O)N3CCOCC3)nn2)cc1`, the max response, negative = inhibition was inconclusive: -44.4%.
With `C/C(=N\NC(=O)c1ccc(Cl)c(S(=O)(=O)Nc2ccccc2Cl)c1)c1ccncc1` the max response, negative = inhibition was inactive: 4.55%.
With `Cc1cc2oc(C(=O)N3CCN(Cc4ccccc4)CC3)c(C)c2cc1C` the max response, negative = inhibition was inconclusive: -30.9%.
`COc1cccc(-n2nc(C(N)=O)c(O)cc2=O)c1` was tested, and the max response, negative = inhibition was inactive: -6.67%.
`COc1cc(/C=N/Nc2nc3ccccc3o2)cc(OC)c1O` was tested, and the max response, negative = inhibition was inconclusive: -35.4%.
In the case of `Cc1ccn2c(=S)[nH]nc2c1`, the max response, negative = inhibition is reported as inconclusive: -46.3%.
In the case of `CC(C)(C)c1ccc(NC(=S)NCCc2ccccn2)cc1`, the max response, negative = inhibition is reported as inactive: -24.9%.
With `Cc1ccc(NC(=O)Cn2c(CCC(=O)O)ccc2-c2cccs2)cc1Cl` the max response, negative = inhibition was inactive: -4.32%.
With `CCOC(=O)c1c(C)c(C(=O)Nc2cc(OC)ccc2OC)c(C)n1CC` the max response, negative = inhibition was inactive: 8.19%.
`CN(C)CCNc1nc(-c2ccccc2)nnc1C(F)(F)F` was tested, and the max response, negative = inhibition was active: -51.2%.
For `Cc1ccc(NC(=S)NCCC(c2ccccc2)c2ccccc2)c(C)c1`, the max response, negative = inhibition was active: -66.6%.
In the case of `CCOC(=O)N1CCN(S(=O)(=O)c2ccc(C(=O)N(CCN(C)C)c3nc4ccc(Cl)cc4s3)cc2)CC1`, the max response, negative = inhibition is reported as inconclusive: -45.6%.
In the case of `C=CCNC(=O)c1onc(CSc2ccc(F)cc2)c1C(=O)O`, the max response, negative = inhibition is reported as inactive: 4.84%.
For `NNc1nc(Nc2ccccc2)nc(N2CCCCC2)n1`, the max response, negative = inhibition was inconclusive: -32.5%.
In the case of `CCOC(=O)c1oc2ccc(CNC(C)(C)C)c(Cl)c2c1C`, the max response, negative = inhibition is reported as inconclusive: -43.7%.
For `Cc1cc(C)cc(-c2nc(-c3ccncc3)no2)c1`, the max response, negative = inhibition was inactive: 15.8%.
With `COCc1cc(S(=O)c2ccc(Cl)cc2)nc(C)n1` (stereo not drawn) the max response, negative = inhibition was inconclusive: -44.2%.
With `CCOC(=O)[C@H]1[C@H]2COc3cc(OC)ccc3[C@@H]2N2C(=O)N(c3cccc(Cl)c3)C(=O)[C@@]12C` the max response, negative = inhibition was inactive: -7.94%.
For `CCOC(=O)C(=Cc1ccccc1)C(=O)c1ccccc1`, the max response, negative = inhibition was active: -59.2%.
`C=C(C)COc1ccc(-c2nc(N)ncc2Oc2ccc(OC)cc2)c(O)c1` was tested, and the max response, negative = inhibition was inconclusive: -30.1%.
In the case of `Clc1nc(N2CCOCC2)ncc1Br`, the max response, negative = inhibition is reported as inconclusive: -30%.
`CC(C)Cn1c(=O)c(C(=O)Nc2ccccc2S(N)(=O)=O)c(O)c2ccccc21` was tested, and the max response, negative = inhibition was inconclusive: -30.9%.
`COC(=O)[C@@]12C[C@@H](CC(=O)NCc3cccc(C(F)(F)F)c3)C(=O)N(Cc3ccc4c(c3)OCO4)C1=CCC(C)(C)C2` was tested, and the max response, negative = inhibition was inconclusive: -37.5%.
With `Oc1c(Cl)cc(Cl)cc1C=Nc1ccc(N2CCOCC2)cc1` the max response, negative = inhibition was inconclusive: -37.6%.
With `Cc1ccc2c(c1)nnn2C1CCN(CC(=O)N(c2ccccc2)c2ccccc2)CC1` the max response, negative = inhibition was inactive: -6.07%.
For `Cc1cc(S(=O)(=O)c2ccc([N+](=O)[O-])cn2)ccc1Br`, the max response, negative = inhibition was active: -72.9%.
For `Cc1c(C(=O)Nc2ccc3oc(-c4cccnc4)nc3c2)oc2ccccc12`, the max response, negative = inhibition was inactive: 39.3%.
`Cc1cn2c(=O)c(C(=O)N3CCN(c4ccccc4)CC3)cnc2s1` was tested, and the max response, negative = inhibition was inconclusive: -31.1%.
